Consider one substance from publication doi:10.1101/2022.09.16.508001.

Protein sequences, listed by entry. Tags and fused reporters are not part of them.
UniProt P05804: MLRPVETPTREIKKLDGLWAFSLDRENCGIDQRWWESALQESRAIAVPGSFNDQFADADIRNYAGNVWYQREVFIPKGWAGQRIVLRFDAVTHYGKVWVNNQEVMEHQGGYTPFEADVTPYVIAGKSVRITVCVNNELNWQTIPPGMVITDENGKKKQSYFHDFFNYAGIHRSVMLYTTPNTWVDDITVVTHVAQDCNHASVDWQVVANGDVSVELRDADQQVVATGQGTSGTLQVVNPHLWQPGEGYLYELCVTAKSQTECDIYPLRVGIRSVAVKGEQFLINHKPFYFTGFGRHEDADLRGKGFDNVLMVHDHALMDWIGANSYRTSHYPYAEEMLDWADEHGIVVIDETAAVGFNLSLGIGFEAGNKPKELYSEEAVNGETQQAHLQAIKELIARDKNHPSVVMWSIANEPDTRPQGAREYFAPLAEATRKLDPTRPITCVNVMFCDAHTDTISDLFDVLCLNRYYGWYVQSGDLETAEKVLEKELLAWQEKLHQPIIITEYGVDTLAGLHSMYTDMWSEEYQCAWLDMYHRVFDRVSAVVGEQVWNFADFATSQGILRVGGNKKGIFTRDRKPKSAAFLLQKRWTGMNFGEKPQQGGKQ
UniProt Q9LN63: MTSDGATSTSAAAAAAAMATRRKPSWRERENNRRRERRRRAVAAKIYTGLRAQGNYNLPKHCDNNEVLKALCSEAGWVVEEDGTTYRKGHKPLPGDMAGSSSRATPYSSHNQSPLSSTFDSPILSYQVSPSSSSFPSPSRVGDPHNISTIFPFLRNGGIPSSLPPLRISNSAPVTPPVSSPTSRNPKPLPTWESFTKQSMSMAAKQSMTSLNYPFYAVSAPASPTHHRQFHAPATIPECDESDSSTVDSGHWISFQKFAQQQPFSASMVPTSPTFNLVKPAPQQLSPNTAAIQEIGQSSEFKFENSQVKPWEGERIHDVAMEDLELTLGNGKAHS

These are yes or no findings as the source states them, for the method shown. In cells and extracts the contact can be indirect. Some entries that bind do so weakly or less than the wild type. For some assays here: Sequences can lack the tags named with a protein.

Assay [1] deals with T1, FLAG-GTL1 (Arabidopsis) (UniProt Q9C882).
T1 sequence: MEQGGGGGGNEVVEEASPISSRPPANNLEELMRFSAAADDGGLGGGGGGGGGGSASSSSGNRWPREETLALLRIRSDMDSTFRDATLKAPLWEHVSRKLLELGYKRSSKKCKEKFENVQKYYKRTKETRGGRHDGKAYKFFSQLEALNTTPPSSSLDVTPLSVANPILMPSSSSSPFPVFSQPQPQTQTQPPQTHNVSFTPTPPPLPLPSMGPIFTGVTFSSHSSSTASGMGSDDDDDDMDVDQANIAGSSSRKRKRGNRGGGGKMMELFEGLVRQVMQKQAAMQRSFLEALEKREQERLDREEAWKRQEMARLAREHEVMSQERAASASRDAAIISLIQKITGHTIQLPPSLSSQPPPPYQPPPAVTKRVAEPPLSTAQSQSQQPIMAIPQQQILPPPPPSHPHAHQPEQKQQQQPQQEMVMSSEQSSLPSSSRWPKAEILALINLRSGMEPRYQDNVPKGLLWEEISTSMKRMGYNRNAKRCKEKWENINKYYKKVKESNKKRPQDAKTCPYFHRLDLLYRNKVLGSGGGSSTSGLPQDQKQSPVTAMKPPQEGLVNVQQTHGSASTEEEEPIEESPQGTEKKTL
The assay is described as follows: co-IP.

The target in assay [2] is FLAG-GUS (UniProt P05804). The assay is described as follows: co-IP.

As to BES1-GFP (from UniProt Q9LN63 1-335), the binding entry in assay [1] is listed as “binds”; in assay [2] it was “no binding”.
